Data: publication doi:10.1101/2022.03.27.485962
Results are given in words; binding and its absence hold for the method and conditions named. In cells and extracts the contact can be indirect. Some results given as binding are weak or reduced against the parent protein; the word gives no strength.

The chains behind the UniProt entries cited, without tags or fusion partners. Residues count along the entry.
UniProt P0DTX1: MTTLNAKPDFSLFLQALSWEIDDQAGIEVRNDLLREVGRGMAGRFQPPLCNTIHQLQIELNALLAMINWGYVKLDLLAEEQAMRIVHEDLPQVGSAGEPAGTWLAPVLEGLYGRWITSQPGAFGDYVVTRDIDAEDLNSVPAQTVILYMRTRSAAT
UniProt O82861, residues 31-1326: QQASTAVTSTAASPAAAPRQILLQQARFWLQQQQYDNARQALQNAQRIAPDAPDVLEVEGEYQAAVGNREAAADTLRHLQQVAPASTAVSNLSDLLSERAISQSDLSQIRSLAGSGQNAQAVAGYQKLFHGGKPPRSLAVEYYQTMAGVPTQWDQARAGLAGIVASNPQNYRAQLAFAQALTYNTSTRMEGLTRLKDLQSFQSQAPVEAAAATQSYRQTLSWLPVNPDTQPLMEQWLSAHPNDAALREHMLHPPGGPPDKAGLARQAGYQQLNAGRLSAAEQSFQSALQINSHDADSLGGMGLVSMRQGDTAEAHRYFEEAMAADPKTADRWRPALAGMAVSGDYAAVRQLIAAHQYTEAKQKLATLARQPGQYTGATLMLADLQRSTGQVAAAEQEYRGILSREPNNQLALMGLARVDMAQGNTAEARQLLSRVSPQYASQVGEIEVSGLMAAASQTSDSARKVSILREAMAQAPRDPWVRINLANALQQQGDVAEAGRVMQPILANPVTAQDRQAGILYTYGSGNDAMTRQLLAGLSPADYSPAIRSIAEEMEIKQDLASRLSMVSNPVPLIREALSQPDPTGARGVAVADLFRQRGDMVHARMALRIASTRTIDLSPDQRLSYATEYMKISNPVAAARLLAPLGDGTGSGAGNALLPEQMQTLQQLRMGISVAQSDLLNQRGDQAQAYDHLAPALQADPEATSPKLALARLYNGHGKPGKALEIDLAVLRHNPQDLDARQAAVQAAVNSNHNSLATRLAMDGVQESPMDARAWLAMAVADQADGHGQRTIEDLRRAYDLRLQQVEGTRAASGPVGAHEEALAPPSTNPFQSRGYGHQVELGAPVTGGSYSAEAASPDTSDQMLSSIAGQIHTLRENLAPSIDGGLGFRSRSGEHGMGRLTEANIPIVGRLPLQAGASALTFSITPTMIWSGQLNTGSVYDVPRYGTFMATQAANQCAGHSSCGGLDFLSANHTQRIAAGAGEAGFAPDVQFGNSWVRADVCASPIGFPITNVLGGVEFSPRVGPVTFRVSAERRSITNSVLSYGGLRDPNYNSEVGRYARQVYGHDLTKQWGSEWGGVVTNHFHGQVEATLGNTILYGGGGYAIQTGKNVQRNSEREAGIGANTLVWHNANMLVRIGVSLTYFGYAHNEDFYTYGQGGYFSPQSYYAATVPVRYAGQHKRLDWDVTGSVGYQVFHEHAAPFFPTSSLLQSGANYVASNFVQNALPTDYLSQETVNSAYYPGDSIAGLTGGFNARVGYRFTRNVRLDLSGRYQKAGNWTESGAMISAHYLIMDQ

Molecular target: BcsD with a hexa-histidine tag attached to the C-terminus (Komagataeibacter sucrofermentans JCM9730 (BPR2001)) (UniProt P0DTX1)
Assay: pull-down

For “BcsC, full-length protein, without tag (from UniProt O82861 31-1326)”, which binding is on record?
The binding was “binds”.
